# Data source: PubChem BioAssay AID1259254 (NCATS, 2017)
# Test: 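Genome-wide screen for genes that prevent DNA re-replication in cancer cells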 (primary screen)
# System: human HCT116 colorectal cancer cells
# Reagent: single siRNA against human genes
# Duration: 3 days
# Measurement: 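Nuclei stained with Hoechst and imaged; cell-cycle phase assigned by DNA content; G2 share scaled per plate, non-targeting siRNA 0%, GMNN siRNA 100%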
# Direction: G2 robust z-score and G2 cells, % of GMNN control: higher = more G2 cells, more excess DNA replication
# Hit rule: 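An siRNA counts as active if its G2 robust z-score lies at least 5 MADs above the screen median; here such calls match roughly 38% of GMNN control or more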
# The whole screen tested about 59,000 reagents; below is an unselected part. About 1,550 of all reagents (2.6%) were called active. 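G2 share is only a proxy for re-replication; each gene was hit by three separate siRNAs, and active genes were retested.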 Reagents against one gene are numbered here. Not all columns of the deposit are shown. Not given: the amount of reagent.
Gene,reagent,G2 robust z-score,"G2 cells, % of GMNN control",Call
ZNF141 (GeneID 7700),1,-0.889,-3.29,inactive
ZNF141 (GeneID 7700),2,2.03,17.2,inactive
ZNF141 (GeneID 7700),3,0.0317,3.19,inactive
PCDHB11 (GeneID 56125),1,0.339,5.35,inactive
PCDHB11 (GeneID 56125),2,-0.00441,2.94,inactive
PCDHB11 (GeneID 56125),3,-0.838,-2.93,inactive
DYNLL1P7 (GeneID 729630),1,5.02,38.3,active
DYNLL1P7 (GeneID 729630),2,1.1,10.7,inactive
DYNLL1P7 (GeneID 729630),3,-0.706,-2,inactive
CFHR1 (GeneID 3078),1,-1,-4.09,inactive
CFHR1 (GeneID 3078),2,0.253,4.74,inactive
CFHR1 (GeneID 3078),3,-0.85,-3.01,inactive
RNF208 (GeneID 727800),1,-0.29,0.927,inactive
RNF208 (GeneID 727800),2,-0.51,-0.618,inactive
RNF208 (GeneID 727800),3,2.18,18.3,inactive
LRRC47 (GeneID 57470),1,-1.15,-5.13,inactive
LRRC47 (GeneID 57470),2,0.196,4.35,inactive
LRRC47 (GeneID 57470),3,-0.493,-0.501,inactive
ADAMTS15 (GeneID 170689),1,0.159,4.08,inactive
ADAMTS15 (GeneID 170689),2,3.55,28,inactive
ADAMTS15 (GeneID 170689),3,-0.319,0.726,inactive
PPP1R13B (GeneID 23368),1,0.0206,3.11,inactive
PPP1R13B (GeneID 23368),2,0.0238,3.13,inactive
PPP1R13B (GeneID 23368),3,-0.349,0.515,inactive
METTL21C (GeneID 196541),1,-0.757,-2.36,inactive
METTL21C (GeneID 196541),2,0.132,3.9,inactive
METTL21C (GeneID 196541),3,0.252,4.74,inactive
COL21A1 (GeneID 81578),1,-1.29,-6.08,inactive
COL21A1 (GeneID 81578),2,0.223,4.54,inactive
COL21A1 (GeneID 81578),3,-0.323,0.692,inactive
RPSAP9 (GeneID 653162),1,3,24.1,inactive
RPSAP9 (GeneID 653162),2,1.86,16,inactive
RPSAP9 (GeneID 653162),3,-0.75,-2.31,inactive
ANKEF1 (GeneID 63926),1,-0.467,-0.32,inactive
ANKEF1 (GeneID 63926),2,-1.01,-4.15,inactive
ANKEF1 (GeneID 63926),3,1.11,10.8,inactive
JMJD8 (GeneID 339123),1,-0.413,0.0599,inactive
JMJD8 (GeneID 339123),2,0.922,9.46,inactive
JMJD8 (GeneID 339123),3,-1.16,-5.19,inactive
MANF (GeneID 7873),1,1.92,16.4,inactive
MANF (GeneID 7873),2,-0.878,-3.21,inactive
MANF (GeneID 7873),3,-0.979,-3.92,inactive
DDX51 (GeneID 317781),1,-0.139,1.99,inactive
DDX51 (GeneID 317781),2,-0.358,0.45,inactive
DDX51 (GeneID 317781),3,8.15,60.3,active
CTIF (GeneID 9811),1,-0.881,-3.23,inactive
CTIF (GeneID 9811),2,-0.355,0.468,inactive
CTIF (GeneID 9811),3,-0.496,-0.523,inactive
HSPA9 (GeneID 3313),1,8.46,62.5,active
HSPA9 (GeneID 3313),2,-0.281,0.991,inactive
HSPA9 (GeneID 3313),3,-0.421,0.00722,inactive
TBC1D7 (GeneID 51256),1,-0.163,1.82,inactive
TBC1D7 (GeneID 51256),2,-0.604,-1.28,inactive
TBC1D7 (GeneID 51256),3,-0.175,1.73,inactive
PAQR3 (GeneID 152559),1,0.163,4.12,inactive
PAQR3 (GeneID 152559),2,0.0994,3.67,inactive
PAQR3 (GeneID 152559),3,-0.837,-2.92,inactive
MIA3 (GeneID 375056),1,0.366,5.54,inactive
MIA3 (GeneID 375056),2,-0.101,2.26,inactive
MIA3 (GeneID 375056),3,0.438,6.05,inactive
ADAMTS6 (GeneID 11174),1,-0.672,-1.76,inactive
ADAMTS6 (GeneID 11174),2,-0.381,0.284,inactive
ADAMTS6 (GeneID 11174),3,-0.979,-3.92,inactive
TBPL1 (GeneID 9519),1,-0.698,-1.95,inactive
TBPL1 (GeneID 9519),2,3.5,27.6,inactive
TBPL1 (GeneID 9519),3,-0.664,-1.7,inactive
UNC45B (GeneID 146862),1,7.85,58.2,active
UNC45B (GeneID 146862),2,-0.769,-2.44,inactive
UNC45B (GeneID 146862),3,-0.645,-1.57,inactive
